# Experimental data from PubChem BioAssay AID2718 (Broad Institute, 2010).
# Chains of the proteins cited; added tags and fusions are not shown. Lines headed by an entry give the natural chain unless they say otherwise; changes in a name come on top.
# UniProt O15379: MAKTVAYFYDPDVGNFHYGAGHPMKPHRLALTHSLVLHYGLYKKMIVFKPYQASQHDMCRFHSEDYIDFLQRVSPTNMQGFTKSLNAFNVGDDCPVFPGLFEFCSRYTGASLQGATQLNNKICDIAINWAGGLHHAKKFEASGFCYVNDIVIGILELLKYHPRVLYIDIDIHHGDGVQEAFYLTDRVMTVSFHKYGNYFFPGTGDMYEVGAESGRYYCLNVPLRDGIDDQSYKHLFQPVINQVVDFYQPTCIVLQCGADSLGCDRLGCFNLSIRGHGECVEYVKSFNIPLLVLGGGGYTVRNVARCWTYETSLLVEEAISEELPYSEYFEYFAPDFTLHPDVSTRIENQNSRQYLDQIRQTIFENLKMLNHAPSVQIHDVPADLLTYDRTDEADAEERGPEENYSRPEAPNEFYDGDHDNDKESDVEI
# In all, about 320,000 compounds went through this assay and about 480 (0.15%) were called active. Inconclusive results, whose numbers are uncertain, are shown with a selection of clear calls. Cut-off read from the data, not from the text of the source: active = inhibition above about 26% (passing the limit was not always enough); inconclusive = no clear call, values can overlap the other calls.
# Biological target: Histone deacetylase 3 (Homo sapiens) (UniProt O15379)
# Experiment: HDAC3 deacetylase inhibitors, primary screen, biochemical, fluorescence, cell-free homogeneous (AID 2718)
# Settings: recombinant HDAC3, fluorogenic peptide/trypsin coupled, at 8.3 µM, stronger effect = higher value
row,SMILES,inhibition
1,CCCCOc1ccc(C(=O)N/C(=C\c2ccc([N+](=O)[O-])cc2)C(=O)OCc2ccco2)cc1,inconclusive: 16.5%
2,CS(=O)(=O)NN1C(=O)c2ccccc2NC1c1cccs1 (stereo not drawn),inconclusive: 9.37%
3,CC(=O)NC(Cc1ccccc1C)C(=O)NC1CCN(C(=O)c2ccc(C)cc2)CC1 (stereo not drawn),inconclusive: 16.6%
4,Cc1ccc2occ(/C=N/NC(=O)c3ccc(O)cc3)c(=O)c2c1,active: 81.6%
5,O=C(/C=C/c1ccco1)Nc1cccc(S(=O)(=O)N2CCOCC2)c1,inconclusive: 13.6%
6,O=C(NCc1ccccc1)c1ccc(N2CCC3(CC2)CC(c2ccc(Cl)cc2)=NO3)c([N+](=O)[O-])c1,inconclusive: 15%
7,O=C(c1ncn(Cc2ccccc2)c1C(=O)N1CCN(c2ccccc2)CC1)N1CCN(c2ccccc2)CC1,inactive: 5.01%
8,COc1cc(OC)c(OC)cc1/C=C1\Oc2cc(OS(C)(=O)=O)ccc2C1=O,inactive: 2.55%
9,COc1ccccc1CNC(=O)CCNS(=O)(=O)c1cccc2nonc12,inactive: 2.29%
10,O=C(CCc1ccccc1)Nc1ccnn1C1CCN(C/C=C/c2ccccc2)CC1,inconclusive: 16.7%
11,CC(NCC(=O)Nc1cc(S(=O)(=O)N2CCCCCC2)ccc1Cl)c1ccccc1 (stereo not drawn),inconclusive: 19.2%
12,COc1cc(CNCCCCO)ccc1OCc1ccccc1F,inconclusive: 10.8%
13,COc1ccc(C2C3C=CCC(c4cccc(-c5ccc(C)cc5)c4)C3C(=O)N2Cc2ccccc2)cc1Cl (stereo not drawn),inactive: -10.5%
14,CCCc1nc(SCC(=O)c2ccc(F)cc2)c2ccccc2n1,active: 33.2%
15,Cc1cc(NS(=O)(=O)c2ccc(NC(=O)c3ccc(F)cc3)cc2)nc(C)n1,inactive: 0.763%
16,COc1ccc(-c2nc3cnccn3c2NC(C)(C)CC(C)(C)C)cc1O,inconclusive: 16%
17,CCCOc1ccc(N2C(=O)CC(N3CCC(c4nncn4CC)CC3)C2=O)cc1 (stereo not drawn),inactive: 0.776%
18,CN(C)C=NC(=O)c1cc(C(=O)c2ccccc2Cl)c[nH]1,inconclusive: 25%
19,CCCCN(CCCC)S(=O)(=O)c1ccc(NS(=O)(=O)c2ccc(NC(C)=O)cc2)cc1,inconclusive: 14%
20,CCCS(=O)(=O)c1c(S(=O)(=O)CCC)c2c(N)cccn2c1C(=O)OC,inconclusive: 15.7%
21,O=C(CSc1nnc(-c2ccco2)n1CC1CCCO1)NC1CCCC1 (stereo not drawn),inconclusive: 14%
22,CC[n+]1c(C)n(-c2ccccc2)c2ccc(C(=O)OC)cc21,inactive: 1.3%
23,CCCCN(CCCC)S(=O)(=O)c1ccc(NC(=O)CN2CCOCC2)cc1,inconclusive: 23.5%

# 2 of the compounds above, with tabs:
row	SMILES	inhibition
3	CC(=O)NC(Cc1ccccc1C)C(=O)NC1CCN(C(=O)c2ccc(C)cc2)CC1 (stereo not drawn)	inconclusive: 16.6%
4	Cc1ccc2occ(/C=N/NC(=O)c3ccc(O)cc3)c(=O)c2c1	active: 81.6%
